Some of the results follow. Further columns of the screen follow, without active or inactive calls. Compounds called inactive in the main read-out are mostly missing here. Potencies come from curve fits of mixed quality, noted in brackets.
Experiment: qHTS Assay to Find Inhibitors of Chronic Active B-Cell Receptor Signaling
Conditions: ABC-DLBCL IkBa-CBG/CBR reporter, luminescence ratio (green luciferase fused to IkBa over red control in TMD8 lymphoma cells), 4 h
Procedure, shortened: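 Cell line TMD8 (human ABC DLBCL), stably expressing tet-inducible CBG68-IkBa fusion and CBR; IMDM/0.5% FBS; cpd up to 46 uM; dox induction, 4 h, 37C/5% CO2; dual luminescence; green/red ratio; MG132 control.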

[1] = measured here: CBR red luminescence, cell number
[2] = measured here: IkBa-CBG green luminescence

SMILES	AC50 [1]	AC50 [2]
Cc1ccc(S(=O)(=O)NCC(=O)OCCOc2ccccc2F)cc1	25.9 µM [falling, partial curve, poor fit]	–
O=C(CCNC(=O)Cn1ccc2ccccc2c1=O)NCCN1CCN(c2cccc(Cl)c2)CC1	0.92 µM [falling, partial curve, poor fit]	–
Cc1nnc(SCC(=O)Nc2cc(-c3cc(C)c(C)cc3C)nn2-c2ccccc2)s1	2.59 µM [rising, partial curve, poor fit]	–
O=C(Nc1cc(Oc2ccc(Cl)cc2)cc([N+](=O)[O-])c1)c1ccco1	2.59 µM [rising, full curve, poor fit]	–
CCOC(=O)C1CCN(C(=O)c2cc3c(=O)n4ccccc4nc3s2)CC1	8.91 µM [falling, partial curve, poor fit]	–
COc1ccc(C(=O)N/N=C/C(Br)=C/c2ccccc2)cc1	1.64 µM [rising, partial curve]	–
CC(=O)Oc1ccc(C(=O)Nc2cccc(C(=O)Nc3ccccc3C(=O)O)c2)cc1	7.94 µM [falling, partial curve]	–
O=C(O)C1CCN(C(=O)OCc2ccccc2)CC1	9.2 µM [rising, partial curve, poor fit]	–
COc1ccc(-c2nn(C)c3sc(C(=O)Nc4cccc(F)c4)cc23)cc1OC	1.12 µM [falling, full curve, poor fit]	–
C[C@H](CO)N1C[C@H](C)[C@@H](CN(C)S(=O)(=O)c2cccs2)Oc2ccc(NC(=O)C3CC3)cc2C1=O	11.6 µM [rising, partial curve, poor fit]	–
COc1ccc(C2N(c3ccc(C)cc3)CCN2c2ccc(C)cc2)cc1O	1 µM [rising, full curve, poor fit]	–
COc1cc(/C=C/c2cc(C(F)(F)F)[nH]c(=O)n2)cc(OC)c1OC	35.5 µM [falling, single point]	22.4 µM [falling, single point]
COc1cc(C2NC(=S)NC(C)=C2C(=O)Nc2ccc(C)cc2)ccc1O (stereo not given)	0.355 µM [rising, partial curve, poor fit]	–
CCCCCn1c(CN2CCN(c3cccc(Cl)c3)CC2)nc2c1c(=O)[nH]c(=O)n2C	35.5 µM [falling, single point]	–
CC1=NNC(=O)C1C(c1ccccc1)C(C#N)C#N (stereo not given)	18.4 µM [falling, partial curve, poor fit]	–
CCN(CC(=O)Nc1ccc(NC(C)=O)cc1)CC(=O)Nc1ccc(Cl)c(Cl)c1	20 µM [rising, single point]	–
CCOC(=O)N/N=C1\CC(C)S(=O)(=O)c2ccc(Cl)cc21 (stereo not given)	10 µM [rising, partial curve, poor fit]	–

SMILES	AC50 [1]	AC50 [2]
CCOc1ccc(N2C(=O)CN(c3cccc4ccccc34)C2=S)cc1	1.12 µM [falling, full curve]	–
CC(C)CNC(=O)CSc1ccc(Cl)cc1	6.51 µM [rising, single point]	–
COc1ccccc1C(=O)Nc1ccc(-c2nnn(CC(=O)N3CCOCC3)n2)cc1	2 µM [falling, full curve]	–
Nc1nonc1-n1nnc(C(=O)N/N=C/c2ccccc2Cl)c1CN1CCOCC1	17.8 µM [rising, single point]	–
Cc1c(Cl)cnc(NC(=O)CSc2n[nH]c(N)n2)c1Cl	0.651 µM [rising, partial curve, poor fit]	–
O=C(Cc1cccs1)Nc1nnc(-c2ccncc2)s1	8.2 µM [falling, partial curve]	–
COc1ccc(NC(=O)/C(C#N)=C/c2ccc(-c3ccccc3C(=O)O)o2)cc1	8.91 µM [falling, partial curve]	–
Cc1ccc(OCc2ccc(C(=O)NCc3cccnc3)cc2)cc1C	14.1 µM [falling, partial curve, poor fit]	–
CCOc1ccc(CNC(=O)c2cc3oc4ccccc4c3n2C)cc1	2.59 µM [falling, partial curve]	–
CC(=O)Nc1ccc(NC(=O)c2ccc(NS(=O)(=O)c3cccc4cccnc34)cc2)cc1	3.55 µM [falling, single point]	–
CC(=O)c1ccc(NC(=O)C(C)N(C)CC(=O)Nc2ccc(N3CCOCC3)cc2)cc1 (stereo not given)	7.08 µM [rising, partial curve, poor fit]	–
C=CCn1c(CNC(=O)c2cccs2)nnc1SCC(=O)Nc1ccc(C(=O)O)cc1	2.06 µM [falling, partial curve, poor fit]	–
COc1cc(NC(=O)c2c(F)cccc2F)c(Cl)cc1Cl	11.2 µM [rising, partial curve, poor fit]	–
O=C(N/N=C/c1ccccn1)c1ccc(Cl)cc1	0.0891 µM [rising, full curve, poor fit]	35.5 µM [falling, single point]
ClCC1CSC(=NC23CC4CC(CC(C4)C2)C3)O1 (stereo not given)	5.01 µM [rising, full curve, poor fit]	–
CCN(CCNC(=O)CN1CCN(Cc2ccc(Cl)cc2)C1=O)c1ccccc1	2.59 µM [falling, partial curve, poor fit]	–

No new results follow: entries from further up.
SMILES	AC50 [1]	AC50 [2]
Cc1nnc(SCC(=O)Nc2cc(-c3cc(C)c(C)cc3C)nn2-c2ccccc2)s1	2.59 µM [rising, partial curve, poor fit]	–
O=C(Nc1cc(Oc2ccc(Cl)cc2)cc([N+](=O)[O-])c1)c1ccco1	2.59 µM [rising, full curve, poor fit]	–

Source: PubChem BioAssay AID493014 (National Center for Advancing Translational Sciences (NCATS), 2011)
